Among the data in patent publication US20250144242A1 are binding values, retold here.

Amino acid sequences for entries named in this document (tags omitted). Residues count along the entry.
UniProt P01344, residues 25-180: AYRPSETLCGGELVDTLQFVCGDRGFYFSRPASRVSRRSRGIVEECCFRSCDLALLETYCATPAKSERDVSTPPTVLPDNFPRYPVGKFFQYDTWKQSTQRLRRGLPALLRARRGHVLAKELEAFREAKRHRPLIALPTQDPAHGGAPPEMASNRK

These are yes or no findings as the source states them, for the method shown. In cells and extracts the contact can be indirect. Some results given as binding are weak or reduced against the parent protein; the word gives no strength. Sequences can lack the tags named with a protein.

The assay concerns the target T1, 3×FLAG-tagged TMED10 (TMED10-FLAG), human, full-length (human) (UniProt P49755).
T1 sequence (looked up): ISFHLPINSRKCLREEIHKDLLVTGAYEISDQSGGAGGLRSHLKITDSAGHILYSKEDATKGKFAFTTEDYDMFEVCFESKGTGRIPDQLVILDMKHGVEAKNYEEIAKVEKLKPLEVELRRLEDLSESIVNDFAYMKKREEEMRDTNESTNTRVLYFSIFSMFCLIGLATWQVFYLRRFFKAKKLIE
Kind of assay: co-immunoprecipitation on anti-FLAG beads, DSP-crosslinked HEK293T lysates, immunoblot. A general note: Immunoblotting shows a protein as a band on a membrane.

Turning to “3×HA-tagged IGF2 (IGF2-HA), human (from UniProt P01344 25-180) (ligand)”, the binding result is on record as “binds”.
